# Experimental data from PubChem BioAssay AID2685 (National Center for Advancing Translational Sciences (NCATS), 2010).
# The campaign covered roughly 320,000 compounds. About 2,100 (0.66%) were called active. Inconclusive results, whose numbers are uncertain, are shown with a selection of clear calls. Calls follow the shape of the dose curve; as a rule, active = well fitted inhibition curve with a large enough effect in the signal ratio, with a control signal flat (not every such curve was filed as active); inconclusive = small, poorly fitted or top-dose-only effect, or effect the other way, or a change in a side signal; inactive = flat fitted curve, though single readings scatter; the % refers to the signal ratio. Potencies of inconclusive entries are doubtful fits and often do not repeat.
# Assay: qHTS Assay for Lipid Storage Modulators in Drosophila S3 Cells
# Conditions: BODIPY lipid droplet fluorescence, 18-24 h, cells fed with added oleic acid; lipid storage change, negative = inhibition: at 46.1 µM (top of the series) unless noted
# How it was run: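 Drosophila S3 cells loaded with oleic acid (400 uM, as added) and compounds at several concentrations; lipid droplets imaged by 488-nm laser-scanning cytometry, 500–530 nm intensity and object ratio to cell channel. Percent activity normalized to 20 uM Triacsin C.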
# % is scaled to controls: 0 for no effect and ±100 for the full control effect; potency is read from the fitted curve at half-maximal effect.
SMILES,Potency,"lipid storage change, negative = inhibition"
COc1ccc(C(=O)Nc2ccccc2C(=O)N2CCCCCC2)cc1,"inconclusive: 0.366 µM [falling, partial curve, poor fit]",–
Cc1nn(C)c(C(=O)NNC(=O)NC2CCCCC2)c1Cl,–,inconclusive: 51.2%
O=C1CCc2cc(S(=O)(=O)Nc3ccc(F)cc3)cc3c2N1CC3,–,inconclusive: 15%
CC(=O)Nc1cccc(Oc2cc(C#N)c(C#N)cc2N2CCOCC2)c1,–,inconclusive: -50.3%
COC(=O)[C@H]1[C@H]2C[C@H]3c4[nH]c5ccccc5c4CCN3C[C@@H]2CC[C@@H]1O,–,inconclusive: 17.9%
CC(=O)O[C@H]1CC[C@@]2(C)C(=CC[C@H]3[C@@H]4CC[C@H](C5(C)OCCO5)[C@@]4(C)CC[C@@H]32)C1,–,inconclusive: 13.1%
Cc1ccc(C)c(N(CC(N)=O)S(C)(=O)=O)c1,"inconclusive: 0.0041 µM [falling, full curve, poor fit]",–
Cc1ccc(CNc2cc(C(=O)O)ccc2Cl)s1,"inconclusive: 11.6 µM [activator, partial curve]",–
Cc1cccn2c(=O)c(C=O)c(N3CCSCC3)nc12,"inconclusive: 0.82 µM [falling, partial curve, poor fit]",–
O=C(Cn1nc(C(F)F)cc1C(F)F)NNC(=S)Nc1ccc([N+](=O)[O-])cc1,–,inconclusive: 16.8%
CC1(NC(=O)CSc2nnc(-c3ccco3)n2Cc2ccccc2)CCS(=O)(=O)C1 (stereo not given),"inconclusive: 4.11 µM [falling, full curve, poor fit]",–
CCOC(=O)c1cn(-c2ccccc2CO)c2c(F)c(F)c(F)cc2c1=O,–,inconclusive: -4.74%
CCOC(=O)c1ccc2c(c1)nc(SCc1cn3ccsc3n1)n2CC,–,inconclusive: -9.2%
O=C(CCNC(=O)c1ccccc1Cl)NCCC1=CCCCC1,"inconclusive: 0.103 µM [falling, full curve, poor fit]",–
Cc1nc(-c2ccc(S(=O)(=O)Nc3ccc(S(N)(=O)=O)cc3)cc2)co1,–,inconclusive: 33.6%
Cc1ccc(NC(=O)NCc2cccnc2)cc1C,–,inconclusive: 39.1%
Cc1cc(C)n(C(=O)c2cc3c(s2)CCCC3)n1,–,inconclusive: -62.3%
N#CCCN(C(=O)COC(=O)COc1ccc(Cl)cc1)c1ccccc1,"inconclusive: 5.8 µM [falling, full curve]",–
COC(=O)c1c(C(=O)OC)c2ccccn2c1C(=O)c1ccc([N+](=O)[O-])cc1,–,inconclusive: 91.9%
CC(C)NCCOCCSc1ccc(Cl)cc1,active: 20.6 µM,–
Cc1ccc(N=CC2=C(O)CC(C)(C)CC2=O)nc1,–,inconclusive: -0.521%
COC(=O)[C@H](C)[C@@H]1C[C@@]1(C)[C@@H](NC(=O)OCc1ccccc1)c1ccccc1,"inconclusive: 5.17 µM [activator, partial curve]",–
O=[N+]([O-])/C=C/c1cn(Cc2ccc(Cl)cc2)c2ccccc12,"inconclusive: 10.3 µM [falling, partial curve]",–
Cc1cc(-c2n[nH]c(=S)n2/N=C/c2cccc([N+](=O)[O-])c2)n[nH]1,–,inconclusive: 48.9%
CCOC(=O)C1=C(O)C(=O)N(Cc2cccnc2)C1c1ccc(OC)cc1 (stereo not given),–,inconclusive: -21%

# Reformatted: 21 of the compounds above
SMILES | Potency | lipid storage change, negative = inhibition
COc1ccc(C(=O)Nc2ccccc2C(=O)N2CCCCCC2)cc1 | inconclusive: 0.366 µM [falling, partial curve, poor fit] | –
Cc1nn(C)c(C(=O)NNC(=O)NC2CCCCC2)c1Cl | – | inconclusive: 51.2%
O=C1CCc2cc(S(=O)(=O)Nc3ccc(F)cc3)cc3c2N1CC3 | – | inconclusive: 15%
CC(=O)Nc1cccc(Oc2cc(C#N)c(C#N)cc2N2CCOCC2)c1 | – | inconclusive: -50.3%
CC(=O)O[C@H]1CC[C@@]2(C)C(=CC[C@H]3[C@@H]4CC[C@H](C5(C)OCCO5)[C@@]4(C)CC[C@@H]32)C1 | – | inconclusive: 13.1%
Cc1ccc(C)c(N(CC(N)=O)S(C)(=O)=O)c1 | inconclusive: 0.0041 µM [falling, full curve, poor fit] | –
Cc1ccc(CNc2cc(C(=O)O)ccc2Cl)s1 | inconclusive: 11.6 µM [activator, partial curve] | –
Cc1cccn2c(=O)c(C=O)c(N3CCSCC3)nc12 | inconclusive: 0.82 µM [falling, partial curve, poor fit] | –
CC1(NC(=O)CSc2nnc(-c3ccco3)n2Cc2ccccc2)CCS(=O)(=O)C1 (stereo not given) | inconclusive: 4.11 µM [falling, full curve, poor fit] | –
CCOC(=O)c1cn(-c2ccccc2CO)c2c(F)c(F)c(F)cc2c1=O | – | inconclusive: -4.74%
CCOC(=O)c1ccc2c(c1)nc(SCc1cn3ccsc3n1)n2CC | – | inconclusive: -9.2%
O=C(CCNC(=O)c1ccccc1Cl)NCCC1=CCCCC1 | inconclusive: 0.103 µM [falling, full curve, poor fit] | –
Cc1nc(-c2ccc(S(=O)(=O)Nc3ccc(S(N)(=O)=O)cc3)cc2)co1 | – | inconclusive: 33.6%
Cc1ccc(NC(=O)NCc2cccnc2)cc1C | – | inconclusive: 39.1%
Cc1cc(C)n(C(=O)c2cc3c(s2)CCCC3)n1 | – | inconclusive: -62.3%
N#CCCN(C(=O)COC(=O)COc1ccc(Cl)cc1)c1ccccc1 | inconclusive: 5.8 µM [falling, full curve] | –
CC(C)NCCOCCSc1ccc(Cl)cc1 | active: 20.6 µM | –
Cc1ccc(N=CC2=C(O)CC(C)(C)CC2=O)nc1 | – | inconclusive: -0.521%
COC(=O)[C@H](C)[C@@H]1C[C@@]1(C)[C@@H](NC(=O)OCc1ccccc1)c1ccccc1 | inconclusive: 5.17 µM [activator, partial curve] | –
Cc1cc(-c2n[nH]c(=S)n2/N=C/c2cccc([N+](=O)[O-])c2)n[nH]1 | – | inconclusive: 48.9%
CCOC(=O)C1=C(O)C(=O)N(Cc2cccnc2)C1c1ccc(OC)cc1 (stereo not given) | – | inconclusive: -21%

# Next results follow.

SMILES,Potency,"lipid storage change, negative = inhibition"
Cc1cc(-c2ccccc2)n[nH]1,–,inconclusive: 26.6%
CCc1ccc(NC(=O)COC(=O)/C=C/c2c(C)nn(C3CCS(=O)(=O)C3)c2Cl)cc1 (stereo not given),"inconclusive: 0.116 µM [cytotoxic, full curve, poor fit]",–
O=C(CCC(=O)N1CCCC1)Nc1nnc(C(F)(F)F)s1,–,inactive: 18.1%
COc1ccc(CCNC(=O)c2ccc(Cl)cc2)cc1OC,–,inconclusive: -31.8% [at 0.369 µM]
Cc1cccc(CNC(=O)CCn2ccc3cc(S(=O)(=O)N4CCCC4)ccc32)c1,–,inconclusive: -10.7%
COc1ccc(C2N3CC4(C)CN2CC(C)(C3)C4)cc1OC (stereo not given),"inconclusive: 29.1 µM [falling, single point]",–
COc1ccc(N(C)S(=O)(=O)c2cccc(C(=O)N3CCN(c4ccccc4)CC3)c2)cc1,–,inconclusive
CC(=O)OC(C)(C)C#CCN1CCCC1,"inconclusive: 29.1 µM [falling, single point]",–
Cc1cc(Cl)ccc1NC(=S)N1CCC(C(N)=O)(N2CCCCC2)CC1,–,inconclusive: 11.9%
Nc1ccccc1C(=O)NCc1ccccc1,"inconclusive: 29.1 µM [cytotoxic, single point]",–
CCCCSc1nc(C)cc(SCC(=O)N/N=C/c2cccc(OC)c2O)n1,"inconclusive: 18.4 µM [falling, single point]",–
CCCc1cc(C(=O)Nc2ccc(Cl)cn2)cs1,"inconclusive: 29.1 µM [falling, single point]",–
CCCCN(C(=O)C1CSC2(C)CCC(=O)N12)c1c(N)n(CC(C)C)c(=O)[nH]c1=O (stereo not given),"inconclusive: 0.0092 µM [activator, full curve, poor fit]",–
Nn1c(COc2ccccc2F)nnc1SCC(=O)NC1CCCC1,"inconclusive: 20.6 µM [activator, single point]",–
O=C(O)CN1C(=O)C(=O)N(Cc2ccccc2F)C1=O,–,inactive: 17%
COc1ccc(N2CCN(c3oc(-c4ccco4)nc3C#N)CC2)cc1,–,inconclusive: 27.3%
COc1ccccc1CC(=O)Nc1cccc2ccccc12,"inconclusive: 7.31 µM [activator, partial curve]",–
CC(C)N1CCc2c(sc(NC(=O)c3ccc(S(=O)(=O)N4CCOCC4)cc3)c2C#N)C1,–,inconclusive: -39.4%
O=C(CSc1ccccn1)Nc1cccc(S(=O)(=O)N2CCCC2)c1,–,inconclusive: -20.8%
C=CCSc1nnc(-c2ccc([N+](=O)[O-])cc2)o1,–,inconclusive: 10.4% [at 9.22 µM]
CC(C)C(=O)NC(c1ccccc1)c1cc([N+](=O)[O-])c2cccnc2c1O (stereo not given),–,inconclusive: 22.9%
CN(C)CCNC(=O)C(=O)NCC1OCCN1S(=O)(=O)c1cc(F)ccc1F (stereo not given),"inconclusive: 29.1 µM [falling, single point]",–
COc1cccc(/C=N/Nc2ncnc(N)c2[N+](=O)[O-])c1OC,"inconclusive: 29.1 µM [falling, single point]",–
CC(C)c1nc(SCC(=O)Nc2ccc([N+](=O)[O-])cc2Br)n[nH]1,–,inconclusive: 39%
CCOC(=O)C1=C(C)N=c2s/c(=C\c3ccc(OCC(=O)O)c(OC)c3)c(=O)n2C1c1ccc(OC)cc1 (stereo not given),–,inactive: 21.8%

SMILES,Potency,"lipid storage change, negative = inhibition"
O=C(COC(=O)/C=C/c1ccco1)NCc1ccc(Cl)cc1,"inconclusive: 16.4 µM [activator, single point]",–
COCCCn1nnnc1SCC(=O)Nc1nc2ccccc2s1,–,inconclusive: -20%
COc1ccc(CNC(=O)c2ccc(-c3ccccc3)cc2)cc1OC,–,inconclusive: 18.4%
Cc1cc(SC(C)C(=O)Nc2c(C)n(C)n(-c3ccccc3)c2=O)nc2ccccc12 (stereo not given),–,inactive: -14.6%
COc1ccc(C(=O)Nc2ccccc2SCc2cc(=O)n3nc(C)sc3n2)cc1OC,–,inconclusive: -51.2%
C=CCSc1nnc(NC(=O)CCNC(=O)c2ccco2)s1,–,inconclusive: 30.5%
CCOC(=O)C(=O)Nc1ccccc1C(=O)NC(C)C,–,inconclusive: -25.7%
CC(C)NC(=O)C1CCN(C2CCN(C(=O)c3scc4c3CCCC4)CC2)CC1,"inconclusive: 29.1 µM [falling, partial curve]",–
CN(CC1CCCO1)S(=O)(=O)c1ccc(C(=O)Nc2nc3cc4c(cc3s2)OCO4)cc1 (stereo not given),–,inconclusive: -55.3%
NNC(=O)CSc1c(-c2cccs2)[nH]c2ccccc12,"inconclusive: 20.6 µM [activator, single point]",–
Cc1cc2c(c(=O)o1)C(C(C)C)C(C#N)=C(N)O2 (stereo not given),–,inconclusive: -41.4%
COc1ccc(/C=C2/SC(=S)N(n3c(C)ccc3C)C2=O)cc1,–,inconclusive: -16.3%
CCCCN(CC)Cc1ccc(CNC(=O)Nc2ccccc2)o1,–,inconclusive: -1.82%
N#Cc1c(SCC(=O)Nc2nccs2)nc2c(c1-c1ccco1)CCCC2,"inconclusive: 0.164 µM [activator, full curve, poor fit]",–
COc1ccc(C2=NOC(C(=O)Nc3cccc(O)c3)C2)cc1 (stereo not given),"inconclusive: 16.4 µM [falling, single point]",–
CCOC(=O)N1CCN(Cc2cc(=O)oc3ccc(Cl)cc23)CC1,"inconclusive: 6.51 µM [rising, single point]",–
O=C(c1cc2c(=O)n3ccccc3nc2s1)N1CCN(c2cccc(Cl)c2)CC1,–,inconclusive: 30.5%
O=C(Nc1ccccc1)Oc1cccc(Br)c1,–,inconclusive: -27.3%
CCOC(=O)C1CCCCN1C(=O)c1oc2c(Cl)cc(C)cc2c1C (stereo not given),–,inconclusive: 33.3%
CC(=O)C1=C(O)C=C(c2ccco2)CC1c1ccco1 (stereo not given),–,inconclusive: -11%
O=S(=O)(c1ccccc1)N1CCN(Cc2ccccc2)CC1,"inconclusive: 14.6 µM [activator, partial curve]",–
CCN(CC)CCCN1C(=O)c2oc3ccccc3c(=O)c2C1c1cccnc1 (stereo not given),–,inconclusive: 16.4%
Cc1ccc(CN(C(=O)c2csnn2)C(C(=O)NC2CCCC2)c2ccccn2)cc1 (stereo not given),"inconclusive: 0.651 µM [falling, full curve]",–
COc1ccc(OC)c(CN2CCN(C(=O)c3cccc4ccccc34)CC2)c1,–,inconclusive: 27%
COC(=O)c1nc(C(=O)OC)c(C(=O)OC)nc1C(=O)OC,–,inconclusive: -51%
